The results in this text go back to PMC11096176.

Sequences of proteins named here, by UniProt entry; tags and fusion partners are left off.
UniProt Q92769: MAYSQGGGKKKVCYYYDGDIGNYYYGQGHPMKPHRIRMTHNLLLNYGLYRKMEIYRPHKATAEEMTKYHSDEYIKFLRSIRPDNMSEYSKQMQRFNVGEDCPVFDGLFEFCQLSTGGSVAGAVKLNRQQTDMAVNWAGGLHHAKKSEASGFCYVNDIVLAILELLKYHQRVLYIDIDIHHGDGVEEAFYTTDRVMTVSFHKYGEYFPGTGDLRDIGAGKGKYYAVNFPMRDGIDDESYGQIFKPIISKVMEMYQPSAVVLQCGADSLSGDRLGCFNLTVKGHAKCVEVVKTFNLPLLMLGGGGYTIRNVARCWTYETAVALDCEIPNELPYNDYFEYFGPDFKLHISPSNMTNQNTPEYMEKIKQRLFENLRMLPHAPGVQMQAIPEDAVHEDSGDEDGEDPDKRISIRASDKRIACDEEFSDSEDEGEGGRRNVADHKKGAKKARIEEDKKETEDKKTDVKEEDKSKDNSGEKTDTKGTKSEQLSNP

Results are given in words; binding and its absence hold for the method and conditions named. Binding seen in cells or lysates may run through a third protein. A yes stands for co-enrichment or nearness to the bait. Other partners may have been found. Sequences can lack the tags named with a protein.

This experiment addresses T1, Flag-tagged TBX3 (UniProt O15119).
T1 sequence: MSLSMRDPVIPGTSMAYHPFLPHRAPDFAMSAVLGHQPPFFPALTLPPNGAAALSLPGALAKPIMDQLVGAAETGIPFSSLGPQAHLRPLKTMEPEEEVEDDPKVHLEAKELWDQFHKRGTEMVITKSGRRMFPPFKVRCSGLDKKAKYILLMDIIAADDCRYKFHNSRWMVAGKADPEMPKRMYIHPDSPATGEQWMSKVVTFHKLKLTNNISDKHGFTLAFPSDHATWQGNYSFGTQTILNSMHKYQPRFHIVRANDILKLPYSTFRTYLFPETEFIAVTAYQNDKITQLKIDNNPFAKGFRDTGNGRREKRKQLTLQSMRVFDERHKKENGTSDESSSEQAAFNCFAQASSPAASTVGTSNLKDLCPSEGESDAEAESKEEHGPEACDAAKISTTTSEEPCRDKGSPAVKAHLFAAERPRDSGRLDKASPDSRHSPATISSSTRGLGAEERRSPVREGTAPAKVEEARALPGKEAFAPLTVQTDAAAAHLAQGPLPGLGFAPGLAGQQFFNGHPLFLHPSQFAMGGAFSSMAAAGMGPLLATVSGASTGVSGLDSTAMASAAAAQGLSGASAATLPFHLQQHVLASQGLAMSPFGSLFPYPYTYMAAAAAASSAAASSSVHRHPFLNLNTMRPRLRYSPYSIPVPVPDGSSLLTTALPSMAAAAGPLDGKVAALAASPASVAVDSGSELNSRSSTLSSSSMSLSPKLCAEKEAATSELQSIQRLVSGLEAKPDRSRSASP
As to the kind of experiment: affinity purification with mass spectrometry; Flag-TBX3 over-expressed in HEK293T for 48 h; lysate (50 mM Tris-HCl pH 7.4, 150 mM NaCl, 5 mM EDTA, 0.5% NP-40) on Flag-M2 beads, eluted with FLAG peptide, SDS-PAGE, in-gel digestion.

For the molecule “HDAC2 (endogenous, found with Flag-TBX3 by IP-MS) (from UniProt Q92769 1-488) (enzyme)”, the binding result is “binds”.

B1: USP15 (endogenous, found with Flag-TBX3 by IP-MS) (enzyme, UniProt Q9Y4E8 1-981)
chain: MAEGGAADLDTQRSDIATLLKTSLRKGDTWYLVDSRWFKQWKKYVGFDSWDKYQMGDQNVYPGPIDNSGLLKDGDAQSLKEHLIDELDYILLPTEGWNKLVSWYTLMEGQEPIARKVVEQGMFVKHCKVEVYLTELKLCENGNMNNVVTRRFSKADTIDTIEKEIRKIFSIPDEKETRLWNKYMSNTFEPLNKPDSTIQDAGLYQGQVLVIEQKNEDGTWPRGPSTPKSPGASNFSTLPKISPSSLSNNYNNMNNRNVKNSNYCLPSYTAYKNYDYSEPGRNNEQPGLCGLSNLGNTCFMNSAIQCLSNTPPLTEYFLNDKYQEELNFDNPLGMRGEIAKSYAELIKQMWSGKFSYVTPRAFKTQVGRFAPQFSGYQQQDCQELLAFLLDGLHEDLNRIRKKPYIQLKDADGRPDKVVAEEAWENHLKRNDSIIVDIFHGLFKSTLVCPECAKISVTFDPFCYLTLPLPMKKERTLEVYLVRMDPLTKPMQYKVVVPKIGNILDLCTALSALSGIPADKMIVTDIYNHRFHRIFAMDENLSSIMERDDIYVFEININRTEDTEHVIIPVCLREKFRHSSYTHHTGSSLFGQPFLMAVPRNNTEDKLYNLLLLRMCRYVKISTETEETEGSLHCCKDQNINGNGPNGIHEEGSPSEMETDEPDDESSQDQELPSENENSQSEDSVGGDNDSENGLCTEDTCKGQLTGHKKRLFTFQFNNLGNTDINYIKDDTRHIRFDDRQLRLDERSFLALDWDPDLKKRYFDENAAEDFEKHESVEYKPPKKPFVKLKDCIELFTTKEKLGAEDPWYCPNCKEHQQATKKLDLWSLPPVLVVHLKRFSYSRYMRDKLDTLVDFPINDLDMSEFLINPNAGPCRYNLIAVSNHYGGMGGGHYTAFAKNKDDGKWYYFDDSSVSTASEDQIVSKAAYVLFYQRQDTFSGTGFFPLDRETKGASAATGIPLESDEDSNDNDNDIENENCMHTN
Turning to B1, the binding entry is “binds”.
